Measured values reported in article PMC12407373, “Kindlin Regulates Mechanosensitive Activation and Adhesion Assembly of Integrin beta6” (Advanced Science, 2025).
These are yes or no findings as the source states them, for the method shown. In cells and extracts the contact can be indirect. Some entries that bind do so weakly or less than the wild type.

Amino acid sequences for entries named in this document (tags omitted). Residues count along the entry.
UniProt P05556, residues 752-798: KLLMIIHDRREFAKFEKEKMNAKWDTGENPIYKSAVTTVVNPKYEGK
UniProt P18564, residues 731-788: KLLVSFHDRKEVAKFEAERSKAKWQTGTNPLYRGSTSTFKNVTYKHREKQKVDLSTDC
UniProt A0A8C2MVT2: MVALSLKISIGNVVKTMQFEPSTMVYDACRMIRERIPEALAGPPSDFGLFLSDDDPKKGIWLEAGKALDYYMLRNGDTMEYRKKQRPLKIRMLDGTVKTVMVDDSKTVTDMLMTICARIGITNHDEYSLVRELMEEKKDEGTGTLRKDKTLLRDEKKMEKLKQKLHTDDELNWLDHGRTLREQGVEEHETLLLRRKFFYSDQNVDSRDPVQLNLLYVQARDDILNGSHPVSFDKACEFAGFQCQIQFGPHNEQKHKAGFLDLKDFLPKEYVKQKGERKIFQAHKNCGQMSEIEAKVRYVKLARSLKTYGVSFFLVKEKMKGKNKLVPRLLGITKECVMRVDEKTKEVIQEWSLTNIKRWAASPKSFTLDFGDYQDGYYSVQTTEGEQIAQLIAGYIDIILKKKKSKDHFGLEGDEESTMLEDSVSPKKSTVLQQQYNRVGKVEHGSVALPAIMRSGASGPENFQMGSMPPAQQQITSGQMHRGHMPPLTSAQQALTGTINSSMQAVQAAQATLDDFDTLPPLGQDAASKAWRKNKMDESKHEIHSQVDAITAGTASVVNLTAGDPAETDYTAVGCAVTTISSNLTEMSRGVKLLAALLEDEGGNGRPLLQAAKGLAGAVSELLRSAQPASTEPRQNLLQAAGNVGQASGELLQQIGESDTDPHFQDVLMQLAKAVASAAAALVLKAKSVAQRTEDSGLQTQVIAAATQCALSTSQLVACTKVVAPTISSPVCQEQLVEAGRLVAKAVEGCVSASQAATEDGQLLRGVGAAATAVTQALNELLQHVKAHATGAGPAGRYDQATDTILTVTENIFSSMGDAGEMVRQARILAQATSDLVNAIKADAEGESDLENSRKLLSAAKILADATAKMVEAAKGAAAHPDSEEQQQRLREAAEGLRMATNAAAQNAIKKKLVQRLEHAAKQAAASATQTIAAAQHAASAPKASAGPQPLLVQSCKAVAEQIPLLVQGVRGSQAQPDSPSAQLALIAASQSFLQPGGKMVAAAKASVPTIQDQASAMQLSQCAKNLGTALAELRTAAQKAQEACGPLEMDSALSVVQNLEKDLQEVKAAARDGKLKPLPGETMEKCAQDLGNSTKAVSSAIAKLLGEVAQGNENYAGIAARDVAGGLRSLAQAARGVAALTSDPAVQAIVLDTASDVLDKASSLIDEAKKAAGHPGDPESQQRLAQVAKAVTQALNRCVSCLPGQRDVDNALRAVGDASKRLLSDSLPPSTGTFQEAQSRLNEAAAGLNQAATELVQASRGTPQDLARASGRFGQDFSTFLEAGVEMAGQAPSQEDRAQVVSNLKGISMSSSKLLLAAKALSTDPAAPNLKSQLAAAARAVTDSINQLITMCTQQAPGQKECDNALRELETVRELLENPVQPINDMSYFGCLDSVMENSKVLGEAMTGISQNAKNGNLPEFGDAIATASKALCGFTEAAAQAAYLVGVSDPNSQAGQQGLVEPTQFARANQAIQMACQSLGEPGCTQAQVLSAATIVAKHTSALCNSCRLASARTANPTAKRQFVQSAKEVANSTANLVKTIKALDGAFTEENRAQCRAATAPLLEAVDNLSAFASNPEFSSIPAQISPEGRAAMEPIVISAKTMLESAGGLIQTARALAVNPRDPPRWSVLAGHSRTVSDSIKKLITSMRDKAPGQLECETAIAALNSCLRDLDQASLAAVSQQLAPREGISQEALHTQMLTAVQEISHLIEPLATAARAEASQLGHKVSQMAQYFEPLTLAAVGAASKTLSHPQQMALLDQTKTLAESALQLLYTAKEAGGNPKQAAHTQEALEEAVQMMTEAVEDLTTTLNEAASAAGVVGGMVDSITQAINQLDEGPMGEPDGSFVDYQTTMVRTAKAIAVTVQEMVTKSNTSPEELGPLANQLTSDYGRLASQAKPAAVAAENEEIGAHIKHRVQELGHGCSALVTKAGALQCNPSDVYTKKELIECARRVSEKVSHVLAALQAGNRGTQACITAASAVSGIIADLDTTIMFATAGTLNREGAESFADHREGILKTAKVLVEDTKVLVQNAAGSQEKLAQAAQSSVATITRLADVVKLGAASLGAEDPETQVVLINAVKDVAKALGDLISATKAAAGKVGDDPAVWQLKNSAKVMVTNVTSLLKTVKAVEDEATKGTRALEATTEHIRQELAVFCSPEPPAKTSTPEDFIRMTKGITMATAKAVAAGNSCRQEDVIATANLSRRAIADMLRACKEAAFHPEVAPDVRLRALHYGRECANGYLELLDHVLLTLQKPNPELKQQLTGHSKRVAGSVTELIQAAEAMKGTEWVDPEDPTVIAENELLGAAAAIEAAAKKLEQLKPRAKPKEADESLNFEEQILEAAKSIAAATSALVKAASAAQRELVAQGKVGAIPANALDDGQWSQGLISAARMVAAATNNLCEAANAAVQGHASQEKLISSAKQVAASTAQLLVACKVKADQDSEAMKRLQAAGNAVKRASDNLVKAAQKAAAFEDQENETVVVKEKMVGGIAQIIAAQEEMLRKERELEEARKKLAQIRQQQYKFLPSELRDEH
UniProt A0A8C2NBB4: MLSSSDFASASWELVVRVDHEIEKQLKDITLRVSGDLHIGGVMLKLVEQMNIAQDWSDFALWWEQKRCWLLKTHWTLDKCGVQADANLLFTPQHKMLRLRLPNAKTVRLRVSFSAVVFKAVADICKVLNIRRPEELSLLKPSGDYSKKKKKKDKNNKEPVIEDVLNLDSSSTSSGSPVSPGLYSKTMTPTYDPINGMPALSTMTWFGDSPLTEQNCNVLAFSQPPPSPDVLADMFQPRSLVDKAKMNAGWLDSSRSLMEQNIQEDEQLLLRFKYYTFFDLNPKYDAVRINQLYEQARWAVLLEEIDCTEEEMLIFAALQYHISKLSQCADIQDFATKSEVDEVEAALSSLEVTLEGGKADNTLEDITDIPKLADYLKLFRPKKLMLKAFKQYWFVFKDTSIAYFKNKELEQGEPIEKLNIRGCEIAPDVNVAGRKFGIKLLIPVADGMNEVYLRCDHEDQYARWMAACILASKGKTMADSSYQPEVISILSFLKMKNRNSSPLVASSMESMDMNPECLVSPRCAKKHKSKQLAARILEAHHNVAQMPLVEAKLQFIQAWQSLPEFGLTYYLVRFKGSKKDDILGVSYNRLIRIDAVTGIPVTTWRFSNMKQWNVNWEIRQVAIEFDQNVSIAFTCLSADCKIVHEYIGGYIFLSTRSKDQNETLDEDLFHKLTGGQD

Experiments:
[1] = target: cytoplasmic tail peptide of wildtype integrin β1, N-terminally biotinylated (UniProt P05556); assay: pull-down; N-terminally biotinylated synthetic integrin tail peptides as bait, CHO-B2 cell lysate as prey, Pierce Biotinylated Protein Interaction Pull-Down Kit; detection by western blot; only the target purified
[2] = target: cytoplasmic tail peptide of wildtype integrin β6, N-terminally biotinylated (UniProt P18564); assay: as above

| Substance | binding [1] | binding [2] |
| --- | --- | --- |
| talin1 (from UniProt A0A8C2MVT2 1-2541) | binds | binds |
| kindlin1 (from UniProt A0A8C2NBB4 1-677) | binds | binds |
